Read-outs that look alike come from different tables or passages of the source.
Test: High-resolution metabolomics (LC-MS): prevalence of biomarkers in plasma, ISF and suction blister fluid
[1] = selected clinically relevant biomarkers, 20 matched samples, ISF
[2] = selected clinically relevant biomarkers, 20 matched samples, SBF
[3] = selected clinically relevant biomarkers, 20 matched samples, plasma
[4] = prevalence among 20 samples, plasma from venipuncture
[5] = prevalence among 20 samples, suction blister fluid
[6] = biomarkers uniquely or predominately in ISF, 20 matched samples, ISF
[7] = biomarkers uniquely or predominately in ISF, 20 matched samples, SBF
[8] = biomarkers uniquely or predominately in ISF, 20 matched samples, plasma

Nc1ncnc2c1ncn2[C@@H]1O[C@H](CSCC[C@H](N)C(=O)O)[C@@H](O)[C@H]1O [S-Adenosylhomocysteine]
Prevalence of biomarker, ISF (metabolites unique to SBF, 20 samples, ISF): 0% | Prevalence of biomarker, SBF (metabolites unique to SBF, 20 samples, SBF): 100% | Prevalence of biomarker, Plasma (metabolites unique to SBF, 20 samples, plasma): 20%

CCCC/C=C\CCCCCCCC(=O)O [Myristoleic acid]
Prevalence of biomarker, ISF [1]: 100% | Prevalence of biomarker, SBF [2]: 45% | Prevalence of biomarker, Plasma [3]: 85%

C=C(OP(=O)(O)O)C(=O)O [Phosphoenolpyruvic acid]
Prevalence of biomarker, Plasma [4]: 5% | Prevalence of biomarker, SBF [5]: 100%

Tocopherol
Prevalence of biomarker, ISF (prevalence among 20 samples, ISF from MN treatment): 100% | Prevalence of biomarker, Plasma [4]: 5% | Prevalence of biomarker, SBF [5]: 0%

O=C(O)CCC(=O)N[C@@H](CCO)C(=O)O [Succinylhomoserine]
Prevalence of biomarker, Plasma [4]: 0% | Prevalence of biomarker, SBF [5]: 75%

CCCCCCCCCCCCCCC(=O)O [Pentadecanoic acid]
Prevalence of biomarker, ISF [6]: 100% | Prevalence of biomarker, SBF [7]: 0% | Prevalence of biomarker, Plasma [8]: 10%

O=c1[nH]c(=O)c2[nH]cnc2[nH]1 [Xanthine]
Prevalence of biomarker, ISF [1]: 90% | Prevalence of biomarker, SBF [2]: 100% | Prevalence of biomarker, Plasma [3]: 25%

C[C@]12CCC(=O)C=C1CC[C@@H]1[C@@H]2[C@@H](O)C[C@@]2(C)[C@H]1CC[C@]2(O)C(=O)CO [Cortisol]
Prevalence of biomarker, ISF [1]: 30% | Prevalence of biomarker, SBF [2]: 80% | Prevalence of biomarker, Plasma [3]: 100%

CCCCCCCC[C@H]1CCC[C@@H]1CCCCCCC(=O)O [Prostanoic acid]
Prevalence of biomarker, ISF [6]: 85% | Prevalence of biomarker, SBF [7]: 55% | Prevalence of biomarker, Plasma [8]: 5%

CC(C)=CCNc1ncnc2nc[nH]c12 [N6-(delta2-Isopentenyl)-adenine]
Prevalence of biomarker, Plasma [4]: 0% | Prevalence of biomarker, SBF [5]: 85%

O=c1[nH]cnc2nc[nH]c12 [Hypoxanthine]
Prevalence of biomarker, ISF [6]: 80% | Prevalence of biomarker, SBF [7]: 100% | Prevalence of biomarker, Plasma [8]: 0% | Prevalence of biomarker, ISF [1]: 80% | Prevalence of biomarker, SBF [2]: 100% | Prevalence of biomarker, Plasma [3]: 0%

NC(=O)c1ccc[n+]([C@@H]2O[C@H](COP(=O)([O-])O)[C@@H](O)[C@H]2O)c1 [Nicotinamide ribotide]
Prevalence of biomarker, Plasma [4]: 0% | Prevalence of biomarker, SBF [5]: 100%

CC(=O)N[C@H]1C(O)O[C@H](CO)[C@@H](O)[C@@H]1O (stereo partly drawn) [N-Acetyl-D-glucosamine]
Prevalence of biomarker, ISF [6]: 100% | Prevalence of biomarker, SBF [7]: 90% | Prevalence of biomarker, Plasma [8]: 10%

C[C@H](CCC(=O)NCCS(=O)(=O)O)[C@H]1CC[C@H]2[C@@H]3CC[C@@H]4C[C@H](O)CC[C@]4(C)[C@H]3C[C@H](O)[C@]12C [Taurodeoxycholic acid]
Prevalence of biomarker, ISF [1]: 50% | Prevalence of biomarker, SBF [2]: 100% | Prevalence of biomarker, Plasma [3]: 100%

CC[C@H]1[C@@H](O)[C@@H]2[C@H](CC[C@]3(C)[C@@H]([C@H](C)CCC(=O)O)CC[C@@H]23)[C@@]2(C)CC[C@@H](O)C[C@@H]12 [6-Ethylchenodeoxycholic acid]
Prevalence of biomarker, ISF [6]: 85% | Prevalence of biomarker, SBF [7]: 0% | Prevalence of biomarker, Plasma [8]: 0%

O=C(CO)[C@@H](O)[C@H](O)[C@H](O)COP(=O)(O)O [Fructose 6-phosphate]
Prevalence of biomarker, Plasma [4]: 0% | Prevalence of biomarker, SBF [5]: 100%

CCC[CH2][Sn]([Cl])([CH2]CCC)[CH2]CCC [Tributyltin chloride]
Prevalence of biomarker, ISF: 100% | Prevalence of biomarker, Plasma: 10% | Prevalence of biomarker, SBF: 10%

OC[C@H]1O[C@H](OC[C@H]2O[C@H](OC[C@H]3O[C@H](O[C@]4(CO)O[C@H](CO)[C@@H](O)[C@@H]4O)[C@H](O)[C@@H](O)[C@@H]3O)[C@H](O)[C@@H](O)[C@H]2O)[C@H](O)[C@@H](O)[C@H]1O [Stachyose]
Prevalence of biomarker, Plasma [4]: 10% | Prevalence of biomarker, SBF [5]: 60%

CNCCc1c[nH]c2ccccc12 [N-Methyltryptamine]
Prevalence of biomarker, ISF: 70% | Prevalence of biomarker, Plasma: 5% | Prevalence of biomarker, SBF: 5%

O=c1ccn([C@@H]2O[C@H](CO)[C@@H](O)[C@H]2O)c(=O)[nH]1 [Uridine]
Prevalence of biomarker, ISF [1]: 100% | Prevalence of biomarker, SBF [2]: 100% | Prevalence of biomarker, Plasma [3]: 100%

CN[C@@H](Cc1c[nH]cn1)C(=O)O [Methyl-histidine]
Prevalence of biomarker, ISF [1]: 25% | Prevalence of biomarker, SBF [2]: 55% | Prevalence of biomarker, Plasma [3]: 80%

Cc1o[nH]c(=O)c1CC(N)C(=O)O (centres unmarked) [AMPA]
Prevalence of biomarker, ISF: 65% | Prevalence of biomarker, Plasma: 10% | Prevalence of biomarker, SBF: 90%

CC(=O)NCCCNCCCCNCCCNC(C)=O [N^1,N^12-Diacetylspermine]
Prevalence of biomarker, ISF [6]: 95% | Prevalence of biomarker, SBF [7]: 15% | Prevalence of biomarker, Plasma [8]: 0%

OCCNCCO [Diethanolamine]
Prevalence of biomarker, ISF [6]: 100% | Prevalence of biomarker, SBF [7]: 60% | Prevalence of biomarker, Plasma [8]: 5% | Prevalence of biomarker, Plasma [4]: 5% | Prevalence of biomarker, SBF [5]: 60%

Reference: patent US12433510B2, “Methods and systems for improved collection of interstitial fluid” (Georgia Tech Research Corporation, priority 2017, dated 2025)
